Data from article PMC3718797.
Read-outs that look alike come from different tables or passages of the source. No constants are given. Whether binding was seen depends on the method and setting. For part of these data: Binding seen in cells or lysates may run through a third protein. Some binding calls cover weakened binding; strength is not graded here. For part of these data: Where a sequence is shown, tags or fusion partners need not be part of it. Each block holds one molecule with its values, some of them ahead of it.

By UniProt entry, the sequences of proteins in these tests, tags left out. Where a name states a change or a piece, a line headed by the entry shows the natural chain unless it says otherwise. Chains listed by the source or under a name are the forms on record and can include a tag or linker.
UniProt Q9V460: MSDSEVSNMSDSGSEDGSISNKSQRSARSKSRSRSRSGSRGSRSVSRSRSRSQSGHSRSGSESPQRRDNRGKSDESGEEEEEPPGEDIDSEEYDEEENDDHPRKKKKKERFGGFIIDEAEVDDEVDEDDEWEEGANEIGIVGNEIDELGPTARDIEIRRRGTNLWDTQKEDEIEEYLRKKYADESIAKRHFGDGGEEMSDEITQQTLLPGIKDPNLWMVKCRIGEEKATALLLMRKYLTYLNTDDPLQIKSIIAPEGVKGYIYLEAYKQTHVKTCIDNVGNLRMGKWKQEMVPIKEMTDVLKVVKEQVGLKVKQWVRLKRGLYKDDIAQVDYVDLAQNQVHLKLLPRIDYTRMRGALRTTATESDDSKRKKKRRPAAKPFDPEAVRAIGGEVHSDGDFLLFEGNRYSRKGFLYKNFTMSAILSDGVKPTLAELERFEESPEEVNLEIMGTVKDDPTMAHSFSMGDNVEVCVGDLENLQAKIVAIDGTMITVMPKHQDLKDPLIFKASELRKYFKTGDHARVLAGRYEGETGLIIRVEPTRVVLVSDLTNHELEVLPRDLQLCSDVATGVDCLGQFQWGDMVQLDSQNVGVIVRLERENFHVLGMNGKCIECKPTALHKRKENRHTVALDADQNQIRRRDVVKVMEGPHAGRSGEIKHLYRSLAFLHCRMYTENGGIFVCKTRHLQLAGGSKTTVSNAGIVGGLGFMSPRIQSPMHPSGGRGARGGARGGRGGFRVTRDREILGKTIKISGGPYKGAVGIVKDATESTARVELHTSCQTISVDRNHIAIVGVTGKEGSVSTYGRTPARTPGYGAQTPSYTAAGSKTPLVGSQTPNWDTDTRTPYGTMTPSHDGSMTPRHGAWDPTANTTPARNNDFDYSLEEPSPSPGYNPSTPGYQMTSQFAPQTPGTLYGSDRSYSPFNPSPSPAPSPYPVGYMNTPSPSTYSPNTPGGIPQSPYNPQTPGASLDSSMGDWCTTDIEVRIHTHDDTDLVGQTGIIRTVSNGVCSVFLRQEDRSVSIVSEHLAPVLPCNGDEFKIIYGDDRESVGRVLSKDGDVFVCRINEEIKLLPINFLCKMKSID
Flag-tagged W049 variant of Spt5 (Q9V460, form named): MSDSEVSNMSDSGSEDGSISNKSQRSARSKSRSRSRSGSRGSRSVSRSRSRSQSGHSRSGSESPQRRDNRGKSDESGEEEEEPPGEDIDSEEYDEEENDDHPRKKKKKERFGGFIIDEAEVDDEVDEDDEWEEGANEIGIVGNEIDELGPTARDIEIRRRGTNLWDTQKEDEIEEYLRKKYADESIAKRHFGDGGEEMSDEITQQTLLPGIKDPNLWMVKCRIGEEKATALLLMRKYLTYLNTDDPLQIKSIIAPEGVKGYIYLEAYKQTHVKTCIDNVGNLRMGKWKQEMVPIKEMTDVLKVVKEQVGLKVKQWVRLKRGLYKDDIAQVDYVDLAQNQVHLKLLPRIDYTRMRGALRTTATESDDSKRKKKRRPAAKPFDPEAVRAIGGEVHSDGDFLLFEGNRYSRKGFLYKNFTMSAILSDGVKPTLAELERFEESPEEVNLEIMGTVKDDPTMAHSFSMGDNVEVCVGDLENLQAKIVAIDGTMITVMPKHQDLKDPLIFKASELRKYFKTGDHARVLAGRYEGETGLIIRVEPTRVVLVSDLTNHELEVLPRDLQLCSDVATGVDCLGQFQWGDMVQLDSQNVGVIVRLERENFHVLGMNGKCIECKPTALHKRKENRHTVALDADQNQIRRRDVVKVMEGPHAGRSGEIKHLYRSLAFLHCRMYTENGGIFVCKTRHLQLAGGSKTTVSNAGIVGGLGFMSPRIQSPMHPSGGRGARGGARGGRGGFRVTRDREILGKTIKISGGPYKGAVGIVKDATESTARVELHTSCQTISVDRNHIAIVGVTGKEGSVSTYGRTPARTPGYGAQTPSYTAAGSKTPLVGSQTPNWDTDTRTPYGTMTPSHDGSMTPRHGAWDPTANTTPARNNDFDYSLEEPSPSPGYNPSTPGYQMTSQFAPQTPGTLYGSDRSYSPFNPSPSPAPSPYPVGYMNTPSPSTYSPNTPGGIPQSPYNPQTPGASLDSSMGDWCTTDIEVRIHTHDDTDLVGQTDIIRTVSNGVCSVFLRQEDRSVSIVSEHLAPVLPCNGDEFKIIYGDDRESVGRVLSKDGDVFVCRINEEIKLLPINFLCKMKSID

What was measured:
[1] = biological target: Full length W049 protein (Spt5 G994D), yeast 2-hybrid construct (Drosophila) (UniProt Q9V460); assay: two-hybrid; data not shown; W049 (G994D) DD and full length W049 protein tested with Pho
[2] = biological target: Full length Spt5 in pGBKT7 (Drosophila) (UniProt Q9V460); assay: two-hybrid; direct test; Spt5 or its DD in pGBKT7, full length Pho in pGADT7; empty pGBKT7 as control
[3] = biological target: Flag-tagged Spt5 (Drosophila) (UniProt Q9V460); assay: co-IP; Flag-tagged Spt5 (or its W049 variant) and Myc-tagged proteins expressed in transfected S2R+ cells; Western blots with anti-Myc and anti-FLAG M2
[4] = biological target: Flag-tagged W049 variant of Spt5 (Drosophila) (UniProt Q9V460); assay: as above
[5] = biological target: Flag-tagged Spt5 (Drosophila) (UniProt Q9V460); assay: as above; remark: listed apart in the source

- binding [1]: binds
- binding [2]: binds
Molecule: Full length Pleiohomeotic (Pho) in pGADT7 (from UniProt Q8ST83 1-520)

- binding [3]: no binding
Molecule: Myc-C-Pho (351-520) (from UniProt Q8ST83 351-520) (domain or fragment)

- binding [4]: binds
- binding [3]: binds
Molecule: Myc-Pho (from UniProt Q8ST83 1-520)

- binding [5]: binds
B1: Myc-N-Pho (amino acids 1-351) (domain or fragment, UniProt Q8ST83 1-351)
chain: MAYERFGIILQSEQYDEDIGNTKVNQKMNEGNHYDLHRKNAFDRIIHSESKKGDNVINYNIHENDKIKAADNIFSSKLKMNPNMSYEMNINCFKNIGYGENQETSKVLTNSLSNNDINTEESGVVDKNSPFLTLGTTILNSNGKSRRWEQKLVHIKTMEGEFSVTMWASGISDDEYSGSDQIVGASDLLKGKEEFGIDGFTSQQNKEYQKMESKFTNAQTLEMPHPISSVQIMDHLIKERGNLSQENNISERILSKTTLSFEEPILLPDSSSIELVNETAAMTINNHRTLSNHTGNTGDLHALPSSVPFRIGLHEGQVNDCLSTISQSTHQDNTDSTGCGEMNLSEVTVSY
